From PubChem BioAssay AID540256 (National Center for Advancing Translational Sciences (NCATS), 2011)
Hit rate of the full screen: of about 300,000 compounds, about 3,700 (1.2%) were called active. Inconclusive means that the source gave no clear call. Such entries were picked first, then a sample of the others. Calls follow the shape of the full dose curve; tested in HEK293 cells. Potencies beside an inconclusive call are fits to weak or partial responses and may not hold up.
% is scaled to controls: 0 for no effect and ±100 for the full control effect; potency is read from the fitted curve at half-maximal effect.

Test: qHTS for Inhibitors of binding or entry into cells for Lassa Virus; also: nearly all actives have a fitted effect of over 50% in size
Conditions: Lassa virus pseudotype entry inhibition, cell reporter; activity change, negative = inhibition: at 37.9 µM (top of the series) unless noted
With `COc1ccc(S(=O)(=O)c2cnc(SCC(=O)Nc3cc(F)ccc3C)[nH]c2=O)cc1Cl` the “activity change, negative = inhibition” value was inactive: -6.93% [at 46.1 µM]. With `Cc1ccc2cc(CN(Cc3ccco3)S(=O)(=O)c3c(C)ccc4nsnc34)c(=O)[nH]c2c1` the Potency was inconclusive: 14.6 µM [inhibitor, single point]. In the case of `O=S(=O)(c1ccc(OCc2nc3ccccc3s2)c(Cl)c1)N1CCOCC1`, the Potency is reported as inconclusive: 15.8 µM [inhibitor, single point]. With `O=C(CSc1c2c(nc3cc(Cl)ccc13)CCCC2)NCc1ccccc1Cl` the Potency was inconclusive: 5.62 µM [inhibitor, single point]. With `Cc1ccc(NC(=O)C2CCN(S(=O)(=O)c3cc(-c4noc(C)n4)ccc3C)CC2)c(C)c1` the Potency was inconclusive: 14.1 µM [inhibitor, single point]. With `COc1ccc(NC(=O)C(NC(=O)/C=C\c2ccc3c(c2)OCO3)c2ccccc2)cc1` (stereo not drawn) the Potency was inconclusive: 6.31 µM [inhibitor, single point]. In the case of `COC(=O)c1c(NC(=O)COC(=O)[C@@H](NS(=O)(=O)c2ccc(C)cc2)C(C)C)sc2c1CCC2`, the Potency is reported as inconclusive: 11.2 µM [inhibitor, partial curve, poor fit]. In the case of `O=C(Nc1ccccc1N1CCOCC1)c1cc(-c2ccncc2)nc2ccccc12`, the Potency is reported as inconclusive: 15.8 µM [inhibitor, single point]. For `Cc1ccc2c(c1)N(CCCC(=O)NCc1cccc(F)c1)C(=O)CO2`, the Potency was inconclusive: 3.16 µM [activator, partial curve, poor fit]. In the case of `O=C(CCCC(=O)N(c1ccc(F)cc1)C(C(=O)NC1CCCC1)c1ccc(O)cc1)Nc1ccccn1` (stereo not drawn), the “activity change, negative = inhibition” value is reported as inactive: -29% [at 46.1 µM]. In the case of `COc1ccc(/C=N/n2cnn(Cc3ccccc3Cl)c2=S)cc1OC`, the Potency is reported as inconclusive: 20 µM [inhibitor, single point]. With `O=C1CC(SCc2nc3ccccc3[nH]2)C(=O)N1c1cccc(Cl)c1` (stereo not drawn) the “activity change, negative = inhibition” value was inactive: 1.62%. With `CCC(CC)C(=O)Nc1ccc(Nc2ccccc2)cc1` the Potency was inconclusive: 35.5 µM [activator, partial curve, poor fit]. In the case of `Cc1ccc(OCCn2cc(C=O)c3ccccc32)cc1`, the “activity change, negative = inhibition” value is reported as inactive: -25%. With `COc1ccc(-c2nn(-c3ccccc3)cc2/C=N/N2C(=O)CSC2=S)cc1` the Potency was inconclusive: 29.1 µM [inhibitor, single point]. In the case of `CCc1nc(SCC(=O)Nc2cc(OC)ccc2OC)c2c(C)c(C)sc2n1`, the Potency is reported as inconclusive: 22.4 µM [inhibitor, single point]. In the case of `CCc1ccccc1NC(=O)C1CCCN(c2cnccn2)C1` (stereo not drawn), the “activity change, negative = inhibition” value is reported as inactive: 6.59% [at 46.1 µM]. In the case of `O=C(NCCC1=CCCCC1)C(=O)NCC(c1ccco1)N1CCN(c2ccccc2)CC1` (stereo not drawn), the Potency is reported as inconclusive: 22.4 µM [inhibitor, partial curve, poor fit].
